No constants are given. Whether binding was seen depends on the method and setting. Binding calls can cover weak binding; strength is not graded here.
How the values were obtained:
[1] = biological target: cynomologus monkey CCR6 (cynomolgus monkey); test: flow cytometry on cynomolgus monkey PBMCs, 10 µg/mL
[2] = biological target: mmCCR6 block1 hsCCR6 (human/mouse hybrid); test: flow cytometry on transiently transfected CHO cells
[3] = biological target: mmCCR6 block1 hsCCR6 (human/mouse hybrid); test: flow cytometry on transiently transfected CHO cells, 10 µg/ml, anti-human IgG-PE
[4] = biological target: cynomologus monkey CCR6 (cynomolgus monkey); test: flow cytometry on cynomolgus monkey PBMCs, 10 µg/mL, anti-human IgG-PE

Measured: binding

B1: chimeric 4H11 antibody (antibody, human IgG1, kappa, V domains shown)
VH: EVKLVESGGGLVQPGGSLKLSCATSGFSFSDYYMYWIRQTPEKRLEWVAYITNGGITYYPDTVKGRFTISRDNAKNTLYLQMSRLRSEDTAMYYCTSPLRGAWFAYWGQGTLVTVSS
VL: DVIMTQSPLSLPVSLGDQASISCRSSQSIVHSNGNTYLEWYLQKPGQSPKLLIYKVSNRFSGVPDRFSGSGSGTDFTLKISRVEAEDLGLYYCFQGSHVPLTFGAGTKLEIKR
binds: all assays above

Source: US20180086836A1
